Some of the results follow.

The chains behind the UniProt entries cited, without tags or fusion partners. Where a name states a change or a piece, a line headed by the entry shows the natural chain unless it says otherwise.
UniProt Q8N3F8: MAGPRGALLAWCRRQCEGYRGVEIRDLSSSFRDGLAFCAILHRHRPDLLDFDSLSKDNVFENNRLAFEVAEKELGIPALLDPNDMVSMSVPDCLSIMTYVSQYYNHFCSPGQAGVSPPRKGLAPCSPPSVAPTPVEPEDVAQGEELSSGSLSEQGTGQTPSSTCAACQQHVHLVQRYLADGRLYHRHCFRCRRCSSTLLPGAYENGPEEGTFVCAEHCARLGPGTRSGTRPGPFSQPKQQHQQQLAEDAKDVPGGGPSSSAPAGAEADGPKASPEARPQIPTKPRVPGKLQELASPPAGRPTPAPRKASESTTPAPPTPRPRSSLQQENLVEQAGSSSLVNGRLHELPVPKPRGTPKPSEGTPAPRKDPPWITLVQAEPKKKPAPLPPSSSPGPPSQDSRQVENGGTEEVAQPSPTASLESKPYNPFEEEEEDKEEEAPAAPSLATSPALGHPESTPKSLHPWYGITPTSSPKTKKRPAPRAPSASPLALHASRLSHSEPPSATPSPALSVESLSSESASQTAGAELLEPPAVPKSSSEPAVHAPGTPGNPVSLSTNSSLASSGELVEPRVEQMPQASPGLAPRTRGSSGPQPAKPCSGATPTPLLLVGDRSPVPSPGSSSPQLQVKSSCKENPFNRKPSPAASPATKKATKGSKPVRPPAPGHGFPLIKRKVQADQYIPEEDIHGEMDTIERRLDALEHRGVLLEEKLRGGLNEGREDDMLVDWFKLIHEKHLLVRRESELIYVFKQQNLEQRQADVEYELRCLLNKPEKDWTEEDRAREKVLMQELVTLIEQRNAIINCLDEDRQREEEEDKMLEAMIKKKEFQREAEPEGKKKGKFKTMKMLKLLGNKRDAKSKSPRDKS
UniProt Q13724: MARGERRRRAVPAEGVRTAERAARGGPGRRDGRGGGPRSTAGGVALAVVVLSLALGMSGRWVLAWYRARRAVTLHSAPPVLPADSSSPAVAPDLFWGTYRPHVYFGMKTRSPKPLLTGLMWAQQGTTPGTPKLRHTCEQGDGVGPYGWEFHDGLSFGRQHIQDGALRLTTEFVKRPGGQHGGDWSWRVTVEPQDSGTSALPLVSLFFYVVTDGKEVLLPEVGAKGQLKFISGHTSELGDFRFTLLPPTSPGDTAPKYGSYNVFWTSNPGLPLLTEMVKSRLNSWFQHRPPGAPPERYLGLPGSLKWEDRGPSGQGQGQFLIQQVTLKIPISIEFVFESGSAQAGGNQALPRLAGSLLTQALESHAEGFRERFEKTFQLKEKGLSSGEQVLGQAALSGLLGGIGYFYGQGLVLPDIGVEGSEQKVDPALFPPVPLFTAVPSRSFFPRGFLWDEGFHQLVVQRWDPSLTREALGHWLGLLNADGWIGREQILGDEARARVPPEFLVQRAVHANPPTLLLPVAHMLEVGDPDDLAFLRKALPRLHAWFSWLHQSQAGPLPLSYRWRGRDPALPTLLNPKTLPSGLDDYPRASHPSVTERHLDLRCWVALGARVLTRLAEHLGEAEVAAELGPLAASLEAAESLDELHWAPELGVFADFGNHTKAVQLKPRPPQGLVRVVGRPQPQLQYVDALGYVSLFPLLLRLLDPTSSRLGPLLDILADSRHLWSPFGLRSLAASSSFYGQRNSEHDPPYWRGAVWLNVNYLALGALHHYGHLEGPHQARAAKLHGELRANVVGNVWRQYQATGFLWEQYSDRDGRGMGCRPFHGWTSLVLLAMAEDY
UniProt Q9Y3A3: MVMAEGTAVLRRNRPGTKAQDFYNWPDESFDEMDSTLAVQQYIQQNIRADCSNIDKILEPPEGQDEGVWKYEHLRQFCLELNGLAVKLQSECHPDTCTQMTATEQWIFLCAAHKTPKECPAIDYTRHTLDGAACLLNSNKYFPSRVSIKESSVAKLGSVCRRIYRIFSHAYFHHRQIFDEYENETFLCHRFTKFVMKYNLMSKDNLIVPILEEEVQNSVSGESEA
UniProt Q8WV92, whole entry, looked up: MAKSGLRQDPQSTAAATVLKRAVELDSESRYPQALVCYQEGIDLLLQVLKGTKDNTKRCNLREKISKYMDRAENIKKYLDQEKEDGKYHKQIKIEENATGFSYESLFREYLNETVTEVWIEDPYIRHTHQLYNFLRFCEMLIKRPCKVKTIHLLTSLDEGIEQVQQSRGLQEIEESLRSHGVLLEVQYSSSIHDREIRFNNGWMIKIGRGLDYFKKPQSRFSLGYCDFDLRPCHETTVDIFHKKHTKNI
UniProt P46013: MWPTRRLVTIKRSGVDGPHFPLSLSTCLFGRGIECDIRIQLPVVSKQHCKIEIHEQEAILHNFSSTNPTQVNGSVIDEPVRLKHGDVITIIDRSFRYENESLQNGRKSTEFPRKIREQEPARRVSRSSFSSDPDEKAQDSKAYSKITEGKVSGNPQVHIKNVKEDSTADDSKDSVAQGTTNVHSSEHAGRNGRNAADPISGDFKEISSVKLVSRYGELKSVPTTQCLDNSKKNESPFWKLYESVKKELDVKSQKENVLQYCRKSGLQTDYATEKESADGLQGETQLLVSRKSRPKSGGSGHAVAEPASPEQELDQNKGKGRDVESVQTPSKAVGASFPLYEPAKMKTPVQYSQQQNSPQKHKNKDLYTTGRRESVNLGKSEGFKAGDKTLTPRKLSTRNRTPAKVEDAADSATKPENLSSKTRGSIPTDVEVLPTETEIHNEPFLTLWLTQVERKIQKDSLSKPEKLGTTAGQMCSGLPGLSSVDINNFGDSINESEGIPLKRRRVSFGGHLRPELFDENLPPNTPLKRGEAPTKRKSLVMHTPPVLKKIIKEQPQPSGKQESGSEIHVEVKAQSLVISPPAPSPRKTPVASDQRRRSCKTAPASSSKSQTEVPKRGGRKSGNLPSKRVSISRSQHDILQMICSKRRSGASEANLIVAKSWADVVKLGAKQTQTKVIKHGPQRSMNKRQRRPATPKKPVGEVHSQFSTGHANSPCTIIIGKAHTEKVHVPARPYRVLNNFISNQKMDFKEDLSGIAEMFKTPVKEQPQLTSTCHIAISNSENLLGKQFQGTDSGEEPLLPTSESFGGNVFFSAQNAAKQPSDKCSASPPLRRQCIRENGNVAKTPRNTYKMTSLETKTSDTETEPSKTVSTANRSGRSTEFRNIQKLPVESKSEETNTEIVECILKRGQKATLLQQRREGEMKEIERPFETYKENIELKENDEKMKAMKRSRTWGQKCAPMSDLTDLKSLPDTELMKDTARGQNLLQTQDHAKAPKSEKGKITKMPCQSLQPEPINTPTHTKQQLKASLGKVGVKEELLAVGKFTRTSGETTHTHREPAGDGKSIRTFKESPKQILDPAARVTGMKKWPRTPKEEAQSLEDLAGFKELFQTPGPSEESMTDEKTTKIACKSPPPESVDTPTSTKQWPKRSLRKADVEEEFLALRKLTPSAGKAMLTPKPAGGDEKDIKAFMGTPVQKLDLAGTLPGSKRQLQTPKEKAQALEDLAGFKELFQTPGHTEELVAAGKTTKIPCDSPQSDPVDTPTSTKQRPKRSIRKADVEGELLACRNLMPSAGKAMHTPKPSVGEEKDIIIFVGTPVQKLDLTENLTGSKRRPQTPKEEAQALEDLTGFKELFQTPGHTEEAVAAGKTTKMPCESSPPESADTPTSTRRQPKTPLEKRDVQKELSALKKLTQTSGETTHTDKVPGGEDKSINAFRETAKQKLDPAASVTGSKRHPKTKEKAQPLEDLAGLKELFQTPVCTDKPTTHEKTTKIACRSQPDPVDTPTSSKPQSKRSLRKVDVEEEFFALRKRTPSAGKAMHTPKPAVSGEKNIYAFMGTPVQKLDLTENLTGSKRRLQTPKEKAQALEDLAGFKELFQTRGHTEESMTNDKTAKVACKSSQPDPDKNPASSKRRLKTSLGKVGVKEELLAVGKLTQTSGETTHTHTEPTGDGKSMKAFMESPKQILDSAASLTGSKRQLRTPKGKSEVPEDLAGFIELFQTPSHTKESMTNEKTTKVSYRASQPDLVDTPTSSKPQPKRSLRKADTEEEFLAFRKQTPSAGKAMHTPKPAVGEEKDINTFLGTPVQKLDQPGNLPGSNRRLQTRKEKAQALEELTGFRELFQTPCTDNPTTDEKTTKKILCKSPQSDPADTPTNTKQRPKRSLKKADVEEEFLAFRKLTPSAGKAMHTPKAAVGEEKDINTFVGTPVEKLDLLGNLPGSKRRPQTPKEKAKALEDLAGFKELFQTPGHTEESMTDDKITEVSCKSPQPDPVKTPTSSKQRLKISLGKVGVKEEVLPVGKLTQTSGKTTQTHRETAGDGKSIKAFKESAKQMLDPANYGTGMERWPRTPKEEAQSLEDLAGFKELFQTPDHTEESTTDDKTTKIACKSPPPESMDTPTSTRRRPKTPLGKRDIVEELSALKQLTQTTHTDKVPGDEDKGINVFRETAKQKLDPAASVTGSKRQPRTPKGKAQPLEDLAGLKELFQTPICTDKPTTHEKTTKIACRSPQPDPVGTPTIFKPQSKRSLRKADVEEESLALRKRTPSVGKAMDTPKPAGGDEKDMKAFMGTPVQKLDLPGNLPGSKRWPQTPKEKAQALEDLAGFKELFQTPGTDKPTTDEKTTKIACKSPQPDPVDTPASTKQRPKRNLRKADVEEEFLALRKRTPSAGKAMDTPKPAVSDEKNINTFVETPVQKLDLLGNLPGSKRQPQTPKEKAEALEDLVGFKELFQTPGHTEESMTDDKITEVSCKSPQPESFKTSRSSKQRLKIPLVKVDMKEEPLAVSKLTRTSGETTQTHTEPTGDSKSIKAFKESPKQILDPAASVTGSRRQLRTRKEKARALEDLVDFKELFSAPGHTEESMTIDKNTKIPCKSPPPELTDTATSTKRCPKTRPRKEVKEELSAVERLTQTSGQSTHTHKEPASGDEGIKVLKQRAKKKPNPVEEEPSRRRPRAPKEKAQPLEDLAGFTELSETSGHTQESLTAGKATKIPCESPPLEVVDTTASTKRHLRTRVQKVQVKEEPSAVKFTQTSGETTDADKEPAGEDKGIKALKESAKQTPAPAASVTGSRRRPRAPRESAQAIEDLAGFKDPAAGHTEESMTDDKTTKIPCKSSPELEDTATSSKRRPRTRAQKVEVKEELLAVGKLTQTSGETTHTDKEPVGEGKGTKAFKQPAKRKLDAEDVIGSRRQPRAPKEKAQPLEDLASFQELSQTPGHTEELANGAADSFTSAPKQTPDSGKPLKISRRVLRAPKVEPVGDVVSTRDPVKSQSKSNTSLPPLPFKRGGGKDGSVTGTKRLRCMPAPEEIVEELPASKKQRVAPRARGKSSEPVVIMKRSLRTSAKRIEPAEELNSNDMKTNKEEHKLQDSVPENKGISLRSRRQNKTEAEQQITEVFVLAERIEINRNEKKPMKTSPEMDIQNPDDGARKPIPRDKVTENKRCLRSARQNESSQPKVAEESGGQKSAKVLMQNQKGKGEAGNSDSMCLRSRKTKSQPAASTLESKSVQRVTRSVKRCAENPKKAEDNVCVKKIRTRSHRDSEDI
UniProt Q9Y6X9: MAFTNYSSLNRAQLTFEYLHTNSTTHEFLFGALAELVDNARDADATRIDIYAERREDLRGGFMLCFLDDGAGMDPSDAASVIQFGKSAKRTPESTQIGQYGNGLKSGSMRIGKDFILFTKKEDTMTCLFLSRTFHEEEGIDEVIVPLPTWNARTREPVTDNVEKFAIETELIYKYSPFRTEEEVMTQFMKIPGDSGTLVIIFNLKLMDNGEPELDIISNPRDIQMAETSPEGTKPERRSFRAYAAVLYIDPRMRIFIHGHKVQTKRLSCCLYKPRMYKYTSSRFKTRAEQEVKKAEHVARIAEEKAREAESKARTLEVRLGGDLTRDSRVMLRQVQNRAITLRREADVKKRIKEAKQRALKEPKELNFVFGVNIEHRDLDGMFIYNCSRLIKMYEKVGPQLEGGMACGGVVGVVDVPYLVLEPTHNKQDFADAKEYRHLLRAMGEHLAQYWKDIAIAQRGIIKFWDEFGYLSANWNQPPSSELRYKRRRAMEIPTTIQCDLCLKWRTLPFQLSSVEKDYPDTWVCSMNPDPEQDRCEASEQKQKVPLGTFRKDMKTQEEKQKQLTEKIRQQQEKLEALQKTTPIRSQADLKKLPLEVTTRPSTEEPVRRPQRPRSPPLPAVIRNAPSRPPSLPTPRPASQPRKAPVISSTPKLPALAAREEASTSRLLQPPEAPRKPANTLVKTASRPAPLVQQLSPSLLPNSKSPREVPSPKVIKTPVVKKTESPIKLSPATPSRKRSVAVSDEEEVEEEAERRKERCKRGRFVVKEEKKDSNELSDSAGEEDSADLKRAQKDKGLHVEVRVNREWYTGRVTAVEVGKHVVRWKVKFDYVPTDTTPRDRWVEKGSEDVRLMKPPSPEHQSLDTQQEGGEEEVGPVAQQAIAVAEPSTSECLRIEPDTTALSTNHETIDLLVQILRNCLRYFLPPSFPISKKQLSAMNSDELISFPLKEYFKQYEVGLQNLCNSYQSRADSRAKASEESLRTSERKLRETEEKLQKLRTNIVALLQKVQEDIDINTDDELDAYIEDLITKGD

Compound in this test: CC1Cc2ccccc2N1C(=O)C1CCCN(C1)C(=O)CCl (mixture of isomers) [TRIM25 ligand 11 (diastereomer mixture)]
Put plainly: probe-labelled cysteine peptide fold change vs DMSO (competition) (log2 fold change); higher = less target engagement (more negative = stronger competition). The settings on record: THP-1, incubation time: 4 h.
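Further: competitive chemoproteomic profiling in live THP-1 cells with an iodoacetamide desthiobiotin (IA-DTB) probe, comparing probe-labelled peptide intensities in compound-treated cells against DMSO-treated controls.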

As for “MICAL1_Q8TDZ2_727+747_CHTCEATLWPGGYEQHPGDGHFYCLQHLPQTDHK (UniProt Q8TDZ2)”, the “probe-labelled cysteine peptide fold change” value runs as follows: (10 µM) 0.162; (50 µM) -0.0657.

Turning to “MICALL1_Q8N3F8_194_CSSTLLPGAYENGPEEGTFVCAEHCAR (UniProt Q8N3F8)”, the “probe-labelled cysteine peptide fold change” value is, setting by setting: (10 µM) 0.154; (50 µM) -0.0569.

Take “MIS18A_Q9NYP9_107_RPLGDSLSWVASQEDTNCILLR (UniProt Q9NYP9)”: the “probe-labelled cysteine peptide fold change” value (10 µM) is -0.0384 and the “probe-labelled cysteine peptide fold change” value (50 µM) is -0.0554.

As for “MPRIP_Q6WCQ1_724_EGYVLQATCER (UniProt Q6WCQ1)”, the “probe-labelled cysteine peptide fold change” value (10 µM) amounted to 0.0872 and the “probe-labelled cysteine peptide fold change” value (50 µM) was found to be 0.027.

Take “MOGS_Q13724_137_HTCEQGDGVGPYGWEFHDGLSFGR (UniProt Q13724)”: the “probe-labelled cysteine peptide fold change” value (10 µM) was -0.0183 and the “probe-labelled cysteine peptide fold change” value (50 µM) was -0.127.

In the case of “MOB4_Q9Y3A3_97_LQSECHPDTCTQMTATEQWIFLCAAHK (UniProt Q9Y3A3)”, the “probe-labelled cysteine peptide fold change” value runs as follows: (10 µM) 0.0422; (50 µM) -0.119.

In the case of “MNAT1_P51948_293_AASPQDLAGGYTSSLACHR (UniProt P51948)”, the “probe-labelled cysteine peptide fold change” value runs as follows: (10 µM) -0.00413; (50 µM) -0.239.

As for “MITD1_Q8WV92_226+233_FSLGYCDFDLRPCHETTVDIFHK (UniProt Q8WV92)”, the “probe-labelled cysteine peptide fold change” value (10 µM) is -0.348 and the “probe-labelled cysteine peptide fold change” value (50 µM) is -0.181.

For the target “MOB4_Q9Y3A3_92_LQSECHPDTCTQMTATEQWIFLCAAHK (UniProt Q9Y3A3)”, the “probe-labelled cysteine peptide fold change” value reads like this: (10 µM) 0.0539; (50 µM) -0.0547.

Consider “MRC2_Q9UBG0_481_DSLEDCVTIWGPEGR (UniProt Q9UBG0)”, for which the “probe-labelled cysteine peptide fold change” value runs as follows: (10 µM) 0.507; (50 µM) 0.405.

For “MKI67_P46013_1251_IPCDSPQSDPVDTPTSTK (UniProt P46013)”, the “probe-labelled cysteine peptide fold change” value reads like this: (10 µM) -0.149; (50 µM) -0.226.

With “MIA3_Q5JRA6_61_GEALEDFTGPDCR (UniProt Q5JRA6)”, the “probe-labelled cysteine peptide fold change” value by setting is: (10 µM) 0.0774; (50 µM) -0.107.

Consider “MORC2_Q9Y6X9_387_DLDGMFIYNCSR (UniProt Q9Y6X9)”, for which the “probe-labelled cysteine peptide fold change” value was 0.019 (10 µM) and 0.069 (50 µM).

Source of the values: the supplement of paper PMC12067093, “Discovery and optimisation of a covalent ligand for TRIM25 and its application to targeted protein ubiquitination” (Chemical Science, 2025).
